# In PubChem BioAssay AID1347076 (National Center for Advancing Translational Sciences (NCATS), 2019):
# Out of some 400,000 compounds screened, about 13,000 (3.2%) were called active. The inconclusive results got no clear call from the source; some entries with a clear call stand among them for comparison. Calls come from the whole dose curve; as a rule, active = well fitted cell-killing curve with a large enough effect; inconclusive = small, poorly fitted or top-dose-only effect, or effect the other way; inactive = flat fitted curve, though single readings scatter. Potencies beside an inconclusive call are fits to weak or partial responses and may not hold up.
# Experiment: qHTS assay for MDR1-selective chemotherapeutics: Primary screen using the drug-selected MDR subline cells KB-V1; note: nearly all actives have a fitted effect of over 60% in size
# Conditions: KB-V1 MDR cells viability, CellTiter-Glo, 72 h; activity change, negative = cytotoxicity: at 46.1 µM (top of the series)
# Outline: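 Following 72 h at 37 degrees C with compound, KB-V1 cell viability was read by CellTiter-Glo luminescence, medium being phenol-red-free DMEM plus 10% FBS; concentration-response parameters came from normalized, curve-fitted qHTS data.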
# % is set by controls: 0 for no effect and ±100 for the full control effect; potency is the fitted concentration of half-maximal effect.
Structure (SMILES),"activity change, negative = cytotoxicity",Potency
O=C(CCNS(=O)(=O)c1ccc2ccccc2c1)NCCOc1ccccc1,inactive: -29%,–
Cc1nc2cc(NC(=O)Nc3cccc(F)c3)ccc2n1C,–,"inconclusive: 18.4 µM [cytotoxic, single point]"
COc1cc(CNCCc2c[nH]c3ccccc23)ccc1OCc1ccc(F)cc1,–,active: 5.17 µM
Cc1ccc(C(C)(C)C)cc1S(=O)(=O)N1CCC(C(=O)N2CCN(c3ccc(O)cc3)CC2)CC1,–,active: 14.6 µM
Cc1ccc(-c2ccc(/C=N/N=C3/NC(=O)C(CC(=O)O)S3)o2)c([N+](=O)[O-])c1 (centres undefined),–,"inconclusive: 10.3 µM [rising, partial curve]"
O=C(CSc1cn(Cc2ccccc2)c2ccccc12)N1CCOCC1,inactive: -13.3%,–
S=C(NCC1CCCO1)N1CCN(Cc2ccccc2)CC1 (centres undefined),–,"inconclusive: 14.6 µM [cytotoxic, partial curve]"
COc1ccc(-c2n[nH]c(=S)n2C2CCCCC2)cc1,inactive: -4.1%,–
CCOc1ccc(NC(=O)Cn2cc(C(=O)c3ccc(CC)cc3)c(=O)c3cc(C)ccc32)cc1,inactive: 1.09%,–
CC(=O)c1c(C)[nH]c(C(=O)OCC(=O)Nc2cc(S(=O)(=O)N3CCCC3)ccc2Cl)c1C,–,active: 13 µM
COc1cccc(-c2nc(SCc3cc(=O)c4ccc(C)c(C)c4[nH]3)n[nH]2)c1,inactive: 0%,–
CCn1nc([N+](=O)[O-])c(C(C#N)c2nc3cc(C(F)(F)F)ccc3s2)c(Cl)c1=O (centres undefined),–,"inconclusive: 29.1 µM [cytotoxic, single point]"
Clc1ccc(-c2nnc(-c3ccccc3)o2)c(Cl)c1,–,"inconclusive: 20.6 µM [cytotoxic, single point]"
O=C(Nc1ccc(NC(=O)c2ccco2)c(Cl)c1)c1ccc2c(c1)OCCO2,inactive: -7.47%,–
CSc1ccc(CNCCCN(C)C)cc1,inactive: -10%,–
CC1(C(=O)Nc2ccc3[nH]ncc3c2)CCN1C(=O)CC(c1ccccc1)c1ccccc1 (centres undefined),inactive: -4.65%,–
COc1ccc(OCCN2CCN(S(=O)(=O)c3ccccc3C(F)(F)F)CC2)cc1,–,active: 2.31 µM
COC(=O)[C@]1(Cc2ccccc2)N[C@H](CN(C)C(=O)c2ccc(C(C)(C)C)cc2)[C@@H]2C(=O)N(Cc3ccccc3)C(=O)[C@@H]21,inactive: 0.0002%,–
CCc1cccc2c(C(=O)COC(=O)c3cnc(C)cn3)c[nH]c12,–,"inconclusive: 23.1 µM [cytotoxic, partial curve]"
Cc1csc(N(C(=O)c2ccccc2F)c2ccccc2)n1,–,"inconclusive: 6.51 µM [cytotoxic, full curve, poor fit]"
COc1ccccc1/C=C/C=C(\C#N)C(=O)NC(C)c1ccccc1 (centres undefined),–,"inconclusive: 18.4 µM [cytotoxic, partial curve]"
CCOc1cccc(C(=O)Nc2ccc(S(=O)(=O)N(Cc3ccccc3)c3ccccc3)cc2)c1,–,"inconclusive: 5.17 µM [cytotoxic, partial curve]"
CCCN(C(=O)c1nn(-c2ccc(OC)cc2)c(=O)c2c1c1ccccc1n2C)c1ccc(CC)cc1,inactive: -9.71%,–
COc1ccc2nc(SCC(=O)N3CCCCC3)c(C#N)cc2c1,inactive: -17.7%,–
O=C1C=CC(=O)N1CCCCCCN1C(=O)C=CC1=O,–,active: 18.4 µM

# Full records from above:
# Clc1ccc(-c2nnc(-c3ccccc3)o2)c(Cl)c1 reads Potency: inconclusive: 20.6 µM [cytotoxic, single point]
# S=C(NCC1CCCO1)N1CCN(Cc2ccccc2)CC1 (centres undefined) reads Potency: inconclusive: 14.6 µM [cytotoxic, partial curve]
# COc1cccc(-c2nc(SCc3cc(=O)c4ccc(C)c(C)c4[nH]3)n[nH]2)c1 reads activity change, negative = cytotoxicity: inactive: 0%
# CCOc1cccc(C(=O)Nc2ccc(S(=O)(=O)N(Cc3ccccc3)c3ccccc3)cc2)c1 reads Potency: inconclusive: 5.17 µM [cytotoxic, partial curve]

# The list goes on.

Structure (SMILES),"activity change, negative = cytotoxicity",Potency
Cc1cc(C)c2c(=O)[nH]n(C3CCOC(C)(C)C3)c2n1 (centres undefined),inactive: -17.7%,–
CC[C@]12c3[nH]c4ccc(OC)cc4c3CCN1C(=O)C(CC(=O)NCCC1=CCCCC1)C[C@@H]2C(=O)N1CCN(C(=O)C2CC2)CC1 (some centres undefined),inactive: -3.08%,–
COc1cc(OC)cc(-c2c(-c3ccc(F)cc3)c3cc(-c4cnc(OC)nc4)ccc3n2C)c1,–,"inconclusive: 3.66 µM [cytotoxic, full curve, poor fit]"
O=C(COc1cccc2ccccc12)N/N=C/c1ccc(Sc2nc3ccccc3s2)o1,inactive: -5.36%,–
Nc1c(Cl)ncnc1N1CCN(c2ncnc(Cl)c2N)CC1,inactive: 5.15%,–
CC1CN(C2=Nc3cccc4cccc2c34)CC(C)O1 (centres undefined),–,"inconclusive: 23.1 µM [cytotoxic, partial curve]"
Cc1ccc(-n2sc3cc(F)ccc3c2=O)c(C)c1,–,"inconclusive: 29.1 µM [cytotoxic, single point]"
Cc1cccc(-n2c(O)c(C=Nc3ccccc3O)c3ccccc3c2=O)n1,inactive: 10.7%,–
Cc1c(NC(=O)c2ccc(N(Cc3ccccc3)S(C)(=O)=O)cc2)c(=O)n(-c2ccccc2)n1C,inactive: 2.43%,–
NC(=O)C1CCN(CC(=O)NC2CCCc3ccccc32)CC1 (centres undefined),–,"inconclusive: 0.0058 µM [cytotoxic, full curve]"
O=C(CSc1nc(=O)n2ccccc2n1)Nc1ccc2c(c1)OCO2,–,"inconclusive: 32.6 µM [rising, single point]"
Cc1ccc(-c2csc(NCCn3c(-c4ccncc4)nc4cc(C(F)(F)F)ccc43)n2)cc1,inactive: -8.17%,–
O=C(NNC(=O)c1cc(-c2ccncc2)nc2ccccc12)c1ccccc1F,–,"inconclusive: 16.4 µM [cytotoxic, partial curve, poor fit]"
COc1ccc(S(=O)(=O)N2CCCCCC2)cc1C(=O)OCC(=O)NC(C)(C)C,inactive: -1.41%,–
COc1ccc(C(=O)Nc2ccc(O)c3ccccc23)cc1,–,"inconclusive: 29.1 µM [cytotoxic, single point]"
COc1ccc(OC)c2[nH]c(C(=O)N/N=C/c3ccccc3O)cc12,inactive: 0.146%,–
CC12CCC(C(=O)Nc3ccccc3Cl)([C@H](Br)C1=O)C2(C)C (some centres undefined),inactive: -1.02%,–
N#C/C(=C(/O)c1ccc(Br)s1)c1nc2ccccc2[nH]1,–,"inconclusive: 3.26 µM [cytotoxic, partial curve, poor fit]"
COCCN(CC(=O)Nc1ccccc1C(F)(F)F)C(=O)/C=C/c1cc(Cl)c2c(c1)OCCO2,–,active: 3.66 µM
C=CCc1cc(OC)ccc1OCCN(C)Cc1ccccc1,inactive: -20.6%,–
Cc1ccc(N(CCCCN2C(=O)c3ccccc3C2=O)C(=O)c2ccc(Cl)s2)cc1,–,"inconclusive: 5.8 µM [cytotoxic, full curve]"
COC(=O)c1cc2nc(-c3ccc(OC)cc3)cc(C(F)(F)F)n2n1,inactive: 2.54%,–
CCN(CC)CCNC(=O)c1ccc(NC(=O)c2ccc(S(=O)(=O)N3CCCC3)cc2)cc1,–,"inconclusive: 29.1 µM [rising, single point]"
Cc1cccc(-c2noc(CN(C(=O)C(c3ccccc3)c3ccccc3)C(C)C)n2)c1,–,"inconclusive: 29.1 µM [cytotoxic, single point]"
BrC(/C=N/N1CCN(Cc2ccccc2)CC1)=C/c1ccccc1,–,"inconclusive: 11.6 µM [cytotoxic, partial curve]"

Structure (SMILES),"activity change, negative = cytotoxicity",Potency
CC(OC(=O)/C=C/c1ccco1)C(=O)NC1CCCCC1C (centres undefined),inactive: -15.1%,–
COc1ccc(CNC(=O)c2oc3ccc(S(=O)(=O)N4CCOCC4)cc3c2C)cc1,–,"inconclusive: 7.31 µM [cytotoxic, partial curve]"
COc1ccc2cc(CN(CC3CCCO3)S(=O)(=O)c3ccccc3)c(=O)[nH]c2c1 (centres undefined),–,active: 20.6 µM
CCOC(=O)N1CCN(c2cc(N3CCOCC3)c(F)cc2[N+](=O)[O-])CC1,–,"inconclusive: 10.3 µM [cytotoxic, partial curve, poor fit]"
CC1=C(C)CC2C(C1)C(=O)c1ccc(Br)cc1S2(=O)=O (centres undefined),inactive: 0%,–
O=C(Nc1cc(NC(=O)c2ccccc2Cl)ccc1Cl)c1ccccc1,–,"inconclusive: 20.6 µM [cytotoxic, partial curve, poor fit]"
CCOc1ccccc1CNC(=O)c1ccc2nc(Cc3ccc(OC)cc3)oc2c1,inactive: -1.18%,–
O=C1CC(NCc2ccco2)C(=O)N1CCc1ccccc1 (centres undefined),inconclusive: 23.8%,–
COc1ccc(/C=C(\C#N)C(=O)OCC(=O)Nc2c(C)cccc2C)cc1,–,"inconclusive: 29.1 µM [rising, single point]"
COc1ccc(-n2nc3c(c2NC(=O)Cc2cccc(C)c2)CS(=O)C3)cc1 (centres undefined),inactive: -2.57%,–
COc1ccc(-c2cc3ccccc3oc2=O)cc1NC(=O)c1ccc([N+](=O)[O-])o1,–,"inconclusive: 29.1 µM [cytotoxic, single point]"
Cc1c(C(=O)NCc2cccnc2)oc2ccc(S(=O)(=O)N3CCC4(CC3)OCCO4)cc12,–,"inconclusive: 23.1 µM [cytotoxic, single point]"
CN(C)CCCNC(=O)C[C@H]1C[C@H](C(=O)N2CCOCC2)[C@@]2(C)c3[nH]c4cc(CCC(=O)N(C)C)ccc4c3CCN2C1=O,inactive: -8.47%,–
CCOC(=O)C(=NC(C)C)NNc1cc(Cl)ccc1Cl,inactive: -4.91%,–
Cc1cc(NC(=O)Cn2c(=O)n(Cc3ccccc3)c(=O)c3ccccc32)no1,–,active: 7.31 µM
Cc1ccc(S(=O)(=O)CCC(=O)OCc2nnc(-c3ccccc3Br)o2)cc1,–,"inconclusive: 18.4 µM [rising, single point]"
CS(=O)(=O)c1ccc(C(=O)Nc2ccc(-c3nc4ccccc4[nH]3)cc2)cc1,inactive: -8.61%,–
CCC(C)[C@H](NC(=O)N1CCCCC1)C(=O)OC (some centres undefined),inactive: 0%,–
COc1ccccc1CNc1nc(=S)[nH]c2cc(OC)c(OC)cc12,inactive: -6.33%,–
O=C(CSc1ccc(-c2ccccn2)nn1)N1CCCc2ccccc21,–,"inconclusive: 14.6 µM [cytotoxic, partial curve, poor fit]"
COc1ccc(C(=O)NCc2nnc(SCC(=O)Nc3ccccc3OC)n2C)cc1,–,"inconclusive: 13 µM [rising, single point]"
COc1ccc(-c2cc(C(F)(F)F)nc(SCC(=O)Nc3ccc4c(c3)OCO4)n2)cc1,–,"inconclusive: 3.26 µM [cytotoxic, full curve]"
O=S1(=O)CCN(Cc2ccccn2)CC1,–,"inconclusive: 29.1 µM [rising, single point]"
Cc1ccc(OCC(=O)Nc2ccc(S(=O)(=O)Nc3ncccn3)cc2)c(C(C)(C)C)c1,inactive: -13.7%,–

# Two compounds drawn at random from the list so far:
Structure (SMILES),"activity change, negative = cytotoxicity",Potency
Cc1ccc(S(=O)(=O)CCC(=O)OCc2nnc(-c3ccccc3Br)o2)cc1,–,"inconclusive: 18.4 µM [rising, single point]"
O=C1CC(NCc2ccco2)C(=O)N1CCc1ccccc1 (centres undefined),inconclusive: 23.8%,–
